Data source: PubChem BioAssay AID504808 (Drosophila RNAi Screening Center, 2011)
The screen tested about 21,000 reagents; this is a random part of those that have a named target and a result. Of all reagents, 18 (0.084%) are marked active. 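Raw counts without plate normalisation, one of two replicates; the ratio scores behind the calls were not deposited.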 The numbers tell different reagents against one gene apart. Names joined by + are all predicted targets of the reagent. No sequences are given here. Not given: the amount of reagent, the time to read-out.

Assay: 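Genes whose loss lifts activity of an E2F-responsive reporter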 (primary screen)
Cell system: Drosophila S2 cells
Reagent: long dsRNA against Drosophila genes
Measurement: 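Firefly luciferase driven by E2F sites, normalised to Renilla luciferase on the same minimal promoter, measured by plate reader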
Reading the numbers: E2F firefly: higher = more E2F reporter activity; Renilla normaliser: higher = more normaliser reporter signal
Rule for the call: 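a knock-down counted as active when the firefly/Renilla E2F signal rose above 50%, a threshold chosen arbitrarily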

no.	gene	reagent no.	E2F firefly, rep 1	Renilla normaliser, rep 1	Outcome
1	5PtaseI (Inositol polyphosphate-5-phosphatase type I)	1	75560	4019	inactive
2	CG16815	1	99744	4231	inactive
3	LSm7 (Like Sm 7)	1	92612	4443	inactive
4	pxb	1	78307	2827	inactive
5	pxb	2	1.11e5	5674	inactive
6	pxb	3	1.23e5	6629	inactive
7	amos (absent MD neurons and olfactory sensilla)	1	96527	4060	inactive
8	Mi-2	1	1.10e5	6035	inactive
9	CG11975	1	58509	2681	inactive
10	st (scarlet)	1	76001	3322	inactive
11	l(2)k14505 (lethal (2) k14505)	1	77949	3360	inactive
12	Zcchc7 (Zinc finger CCHC-type containing 7)	1	67894	3404	inactive
13	CG14893	1	1.07e5	5386	inactive
14	Fen1 (Flap endonuclease 1)	1	1.43e5	5169	inactive
15	CG32259	1	1.29e5	3690	inactive
16	pasi2 (pasiflora 2)	1	1.40e5	8318	inactive
17	CG18666	1	1.53e5	5280	inactive
18	CR11386 + CR33222	1	97788	5336	inactive
19	yellow-g	1	94505	4277	inactive
20	mid (midline)	1	1.52e5	4819	inactive
21	Cks30A (Cyclin-dependent kinase subunit 30A)	1	88088	3610	inactive
22	CG4259	1	1.83e5	6262	inactive
23	Dr (Drop)	1	78024	1044	inactive
24	pHCl-1 (pH-sensitive chloride channel 1)	1	1.34e5	3760	inactive
25	pHCl-1 (pH-sensitive chloride channel 1)	2	1.72e5	7593	inactive
26	pHCl-1 (pH-sensitive chloride channel 1)	3	1.64e5	8585	inactive
27	CG18809	1	1.44e5	6262	inactive
28	CG4704	1	99694	5347	inactive

Laid out differently: results already given
| gene | reagent no. | E2F firefly, rep 1 | Renilla normaliser, rep 1 | Outcome |
| --- | --- | --- | --- | --- |
| mid (midline) | 1 | 1.52e5 | 4819 | inactive |
| Cks30A (Cyclin-dependent kinase subunit 30A) | 1 | 88088 | 3610 | inactive |
| CG4259 | 1 | 1.83e5 | 6262 | inactive |
| Dr (Drop) | 1 | 78024 | 1044 | inactive |

Additional records follow:
no.	gene	reagent no.	E2F firefly, rep 1	Renilla normaliser, rep 1	Outcome
29	Csp (Cysteine string protein)	1	85060	3639	inactive
30	Prosbeta5 (Proteasome beta5 subunit)	1	1.08e5	5455	inactive
31	CG13739	1	1.47e5	5152	inactive
32	Doa (Darkener of apricot)	1	76866	2229	inactive
33	Doa (Darkener of apricot)	2	82417	2498	inactive
34	Doa (Darkener of apricot)	3	92397	3112	inactive
35	Doa (Darkener of apricot)	4	86421	2485	inactive
36	Doa (Darkener of apricot)	5	89145	2448	inactive
37	Doa (Darkener of apricot)	6	2029	1016	inactive
38	Qsox2 (Quiescin sulfhydryl oxidase 2)	1	71876	3889	inactive
39	CG9973 (retired record)	1	90933	3963	inactive
40	CG18281	1	81390	3939	inactive
41	caz (cabeza)	1	67578	764	inactive
42	CG15625	1	1.35e5	5204	inactive
43	CG12035	1	70596	3382	inactive
44	Srp9 (Signal recognition particle 9)	1	98767	3938	inactive
45	Or35a (Odorant receptor 35a)	1	98142	4544	inactive
46	Uqcc1 + CG9948	1	97099	3615	inactive
47	CG7006	1	71299	4191	inactive
48	RunxA (Runt related A)	1	73502	2571	inactive
49	RunxA (Runt related A)	2	72269	5342	inactive
50	RunxA (Runt related A)	3	1.42e5	8029	inactive
51	CG7156	1	71915	4530	inactive
52	CG7542	1	1.56e5	6876	inactive
53	CG32027 (retired record)	1	1.37e5	4237	inactive
54	CycC (Cyclin C)	1	1.03e5	3106	inactive
55	Pk34A (Protein kinase at 34A)	1	92327	4019	inactive
56	FMRFa (FMRFamide)	1	1.64e5	4734	inactive
57	PsGEF (Protostome-specific GEF)	1	1.06e5	5771	inactive
